In PMC4381053:
No constants are given. Whether binding was seen depends on the method and setting. In cells and extracts the contact can be indirect. Here binding means that the protein was enriched with, or labelled near, the bait; the list need not be complete. Blank lines part the entries; values can stand above or below the molecule they belong to.

Chains of the proteins cited; added tags and fusions are not shown. Lines headed by an entry give the natural chain unless they say otherwise; changes in a name come on top. A line that says so, or that is headed by a name, gives the form on record, which may keep a tag or linker.
UniProt P32639: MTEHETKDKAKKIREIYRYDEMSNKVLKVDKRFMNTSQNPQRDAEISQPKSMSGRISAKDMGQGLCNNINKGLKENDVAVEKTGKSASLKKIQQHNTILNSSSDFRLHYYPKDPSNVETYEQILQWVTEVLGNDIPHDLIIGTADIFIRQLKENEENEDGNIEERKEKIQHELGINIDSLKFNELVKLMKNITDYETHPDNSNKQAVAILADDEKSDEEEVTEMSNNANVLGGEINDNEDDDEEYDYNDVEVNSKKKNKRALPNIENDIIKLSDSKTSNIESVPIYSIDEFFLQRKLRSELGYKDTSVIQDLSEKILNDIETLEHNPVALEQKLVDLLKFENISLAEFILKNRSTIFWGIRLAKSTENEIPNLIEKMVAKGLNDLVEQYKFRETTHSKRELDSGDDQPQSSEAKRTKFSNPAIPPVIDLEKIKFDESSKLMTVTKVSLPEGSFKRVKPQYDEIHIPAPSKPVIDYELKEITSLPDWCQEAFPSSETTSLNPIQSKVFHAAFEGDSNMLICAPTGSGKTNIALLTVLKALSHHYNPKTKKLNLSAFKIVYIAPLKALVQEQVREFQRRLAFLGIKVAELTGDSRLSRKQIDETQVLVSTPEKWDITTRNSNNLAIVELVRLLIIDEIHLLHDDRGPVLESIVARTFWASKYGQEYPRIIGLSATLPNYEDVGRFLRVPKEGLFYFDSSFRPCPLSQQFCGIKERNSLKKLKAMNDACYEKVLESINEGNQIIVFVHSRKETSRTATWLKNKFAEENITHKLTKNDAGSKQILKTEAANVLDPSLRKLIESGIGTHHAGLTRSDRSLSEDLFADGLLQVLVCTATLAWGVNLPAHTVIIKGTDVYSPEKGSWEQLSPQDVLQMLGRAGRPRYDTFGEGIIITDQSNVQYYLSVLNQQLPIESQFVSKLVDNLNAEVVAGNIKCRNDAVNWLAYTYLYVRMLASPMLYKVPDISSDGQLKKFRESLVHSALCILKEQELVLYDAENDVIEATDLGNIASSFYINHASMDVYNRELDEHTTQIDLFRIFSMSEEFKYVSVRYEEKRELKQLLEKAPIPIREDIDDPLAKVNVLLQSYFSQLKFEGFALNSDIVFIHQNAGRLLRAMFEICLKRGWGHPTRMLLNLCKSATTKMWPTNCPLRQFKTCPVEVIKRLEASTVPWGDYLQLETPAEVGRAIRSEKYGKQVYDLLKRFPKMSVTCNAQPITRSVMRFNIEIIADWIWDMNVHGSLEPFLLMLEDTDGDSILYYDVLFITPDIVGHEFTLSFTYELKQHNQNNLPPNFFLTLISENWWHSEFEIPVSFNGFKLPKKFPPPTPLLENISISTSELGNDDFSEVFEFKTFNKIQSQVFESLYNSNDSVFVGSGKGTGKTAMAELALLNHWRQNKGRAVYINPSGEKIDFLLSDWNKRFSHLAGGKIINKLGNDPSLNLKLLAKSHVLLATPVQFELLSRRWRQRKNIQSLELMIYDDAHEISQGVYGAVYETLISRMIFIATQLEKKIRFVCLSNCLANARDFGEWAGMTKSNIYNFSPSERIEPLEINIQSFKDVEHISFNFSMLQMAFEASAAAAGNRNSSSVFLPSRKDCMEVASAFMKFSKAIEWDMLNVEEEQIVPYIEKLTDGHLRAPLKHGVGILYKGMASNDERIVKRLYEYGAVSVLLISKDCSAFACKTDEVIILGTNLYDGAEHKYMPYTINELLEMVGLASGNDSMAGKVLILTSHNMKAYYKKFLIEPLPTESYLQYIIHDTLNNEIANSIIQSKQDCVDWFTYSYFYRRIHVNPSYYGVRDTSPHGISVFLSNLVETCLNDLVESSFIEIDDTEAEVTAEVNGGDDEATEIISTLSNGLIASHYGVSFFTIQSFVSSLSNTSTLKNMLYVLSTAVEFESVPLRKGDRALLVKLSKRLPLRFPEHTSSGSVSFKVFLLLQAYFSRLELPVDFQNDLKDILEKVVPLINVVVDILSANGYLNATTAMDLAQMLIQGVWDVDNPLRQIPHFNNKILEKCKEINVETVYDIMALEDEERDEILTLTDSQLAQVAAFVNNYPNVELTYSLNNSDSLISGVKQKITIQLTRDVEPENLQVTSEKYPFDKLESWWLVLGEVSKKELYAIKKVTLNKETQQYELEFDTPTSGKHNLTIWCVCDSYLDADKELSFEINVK
TAP-tagged Brr2-Δ120 (P32639, form named): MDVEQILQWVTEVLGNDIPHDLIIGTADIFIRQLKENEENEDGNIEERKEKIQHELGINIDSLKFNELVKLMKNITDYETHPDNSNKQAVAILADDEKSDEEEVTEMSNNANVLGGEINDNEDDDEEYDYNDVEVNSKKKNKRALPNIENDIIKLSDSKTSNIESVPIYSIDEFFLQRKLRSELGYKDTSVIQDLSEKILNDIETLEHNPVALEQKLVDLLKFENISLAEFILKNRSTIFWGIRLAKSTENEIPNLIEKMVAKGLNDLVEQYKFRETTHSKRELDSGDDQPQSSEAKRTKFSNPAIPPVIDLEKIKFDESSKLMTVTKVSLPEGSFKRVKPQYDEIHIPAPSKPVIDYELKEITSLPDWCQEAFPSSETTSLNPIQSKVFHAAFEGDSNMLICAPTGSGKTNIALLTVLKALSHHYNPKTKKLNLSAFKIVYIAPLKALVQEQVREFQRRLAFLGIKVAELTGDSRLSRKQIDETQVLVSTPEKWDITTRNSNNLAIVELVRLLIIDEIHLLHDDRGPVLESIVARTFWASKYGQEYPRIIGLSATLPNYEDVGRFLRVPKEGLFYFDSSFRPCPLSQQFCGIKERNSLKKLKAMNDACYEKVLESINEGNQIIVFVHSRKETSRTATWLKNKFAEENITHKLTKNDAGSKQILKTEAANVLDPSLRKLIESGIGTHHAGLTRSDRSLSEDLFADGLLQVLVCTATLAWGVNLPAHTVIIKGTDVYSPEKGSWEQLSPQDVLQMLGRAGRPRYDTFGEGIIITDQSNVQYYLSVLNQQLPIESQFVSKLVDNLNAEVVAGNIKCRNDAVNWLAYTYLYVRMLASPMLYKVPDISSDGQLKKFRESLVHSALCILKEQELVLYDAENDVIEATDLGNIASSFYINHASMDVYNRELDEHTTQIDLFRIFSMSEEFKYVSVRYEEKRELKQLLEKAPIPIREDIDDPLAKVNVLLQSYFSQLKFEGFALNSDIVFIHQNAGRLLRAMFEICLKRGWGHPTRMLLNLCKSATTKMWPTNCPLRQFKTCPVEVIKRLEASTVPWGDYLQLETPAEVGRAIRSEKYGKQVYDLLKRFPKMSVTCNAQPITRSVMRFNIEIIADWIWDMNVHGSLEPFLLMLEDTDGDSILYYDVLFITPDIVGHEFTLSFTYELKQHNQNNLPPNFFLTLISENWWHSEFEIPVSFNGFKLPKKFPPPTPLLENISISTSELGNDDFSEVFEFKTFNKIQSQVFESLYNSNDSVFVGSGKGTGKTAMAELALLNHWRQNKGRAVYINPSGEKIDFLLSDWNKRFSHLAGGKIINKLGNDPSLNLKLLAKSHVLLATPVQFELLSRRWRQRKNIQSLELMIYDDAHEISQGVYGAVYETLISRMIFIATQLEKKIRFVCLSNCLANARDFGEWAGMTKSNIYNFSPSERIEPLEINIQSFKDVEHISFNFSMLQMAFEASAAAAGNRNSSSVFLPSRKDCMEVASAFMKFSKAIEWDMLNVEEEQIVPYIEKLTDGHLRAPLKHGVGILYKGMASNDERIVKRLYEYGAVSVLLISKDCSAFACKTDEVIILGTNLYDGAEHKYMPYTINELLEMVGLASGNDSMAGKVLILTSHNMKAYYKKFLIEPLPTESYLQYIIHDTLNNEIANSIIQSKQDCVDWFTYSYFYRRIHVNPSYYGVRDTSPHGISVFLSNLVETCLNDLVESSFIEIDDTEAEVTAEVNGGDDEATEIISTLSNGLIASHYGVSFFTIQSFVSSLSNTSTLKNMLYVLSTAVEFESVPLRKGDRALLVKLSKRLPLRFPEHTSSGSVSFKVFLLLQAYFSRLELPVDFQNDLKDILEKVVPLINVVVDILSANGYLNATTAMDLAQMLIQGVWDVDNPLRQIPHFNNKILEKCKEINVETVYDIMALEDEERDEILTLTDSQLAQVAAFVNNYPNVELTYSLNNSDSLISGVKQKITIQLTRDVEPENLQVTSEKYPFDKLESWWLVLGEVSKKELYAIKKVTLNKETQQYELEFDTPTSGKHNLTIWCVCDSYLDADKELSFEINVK
UniProt Q12309: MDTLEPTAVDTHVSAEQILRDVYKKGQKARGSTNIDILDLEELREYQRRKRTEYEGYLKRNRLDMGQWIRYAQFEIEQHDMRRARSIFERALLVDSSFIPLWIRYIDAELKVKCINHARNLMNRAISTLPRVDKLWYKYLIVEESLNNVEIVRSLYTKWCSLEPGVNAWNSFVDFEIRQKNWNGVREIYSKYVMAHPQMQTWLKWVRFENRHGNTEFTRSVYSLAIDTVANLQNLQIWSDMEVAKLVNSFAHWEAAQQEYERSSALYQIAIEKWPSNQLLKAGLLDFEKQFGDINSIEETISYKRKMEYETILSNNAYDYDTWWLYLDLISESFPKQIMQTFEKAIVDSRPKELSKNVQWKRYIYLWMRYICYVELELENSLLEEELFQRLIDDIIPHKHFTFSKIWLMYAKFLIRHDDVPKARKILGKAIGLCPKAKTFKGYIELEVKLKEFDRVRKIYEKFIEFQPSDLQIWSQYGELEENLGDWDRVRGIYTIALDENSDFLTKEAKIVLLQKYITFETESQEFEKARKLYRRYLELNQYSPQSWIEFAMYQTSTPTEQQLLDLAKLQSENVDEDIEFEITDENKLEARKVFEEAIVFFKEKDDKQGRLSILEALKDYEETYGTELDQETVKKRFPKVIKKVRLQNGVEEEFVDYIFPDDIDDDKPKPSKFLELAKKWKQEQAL
UniProt Q00723: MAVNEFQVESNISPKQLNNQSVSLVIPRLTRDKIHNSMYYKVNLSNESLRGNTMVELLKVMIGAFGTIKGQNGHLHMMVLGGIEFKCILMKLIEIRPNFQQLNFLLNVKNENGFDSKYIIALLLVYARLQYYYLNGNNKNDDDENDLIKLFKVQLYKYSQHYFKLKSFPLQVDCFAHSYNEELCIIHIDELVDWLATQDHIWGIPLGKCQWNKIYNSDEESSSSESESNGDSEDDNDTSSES
UniProt P32523: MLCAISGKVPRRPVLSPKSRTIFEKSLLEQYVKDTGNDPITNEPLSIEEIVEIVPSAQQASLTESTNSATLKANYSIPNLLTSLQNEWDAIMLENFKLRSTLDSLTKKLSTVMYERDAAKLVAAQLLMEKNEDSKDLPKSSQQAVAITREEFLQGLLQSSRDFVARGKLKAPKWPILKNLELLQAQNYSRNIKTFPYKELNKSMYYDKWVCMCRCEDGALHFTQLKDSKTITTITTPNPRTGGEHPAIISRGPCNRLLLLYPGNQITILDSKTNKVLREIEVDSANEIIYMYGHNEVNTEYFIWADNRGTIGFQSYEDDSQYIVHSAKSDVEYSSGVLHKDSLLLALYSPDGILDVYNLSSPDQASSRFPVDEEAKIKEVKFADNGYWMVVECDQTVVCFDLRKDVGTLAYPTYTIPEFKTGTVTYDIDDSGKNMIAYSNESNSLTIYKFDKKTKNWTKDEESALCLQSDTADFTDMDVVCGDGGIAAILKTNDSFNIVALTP
UniProt Q03654: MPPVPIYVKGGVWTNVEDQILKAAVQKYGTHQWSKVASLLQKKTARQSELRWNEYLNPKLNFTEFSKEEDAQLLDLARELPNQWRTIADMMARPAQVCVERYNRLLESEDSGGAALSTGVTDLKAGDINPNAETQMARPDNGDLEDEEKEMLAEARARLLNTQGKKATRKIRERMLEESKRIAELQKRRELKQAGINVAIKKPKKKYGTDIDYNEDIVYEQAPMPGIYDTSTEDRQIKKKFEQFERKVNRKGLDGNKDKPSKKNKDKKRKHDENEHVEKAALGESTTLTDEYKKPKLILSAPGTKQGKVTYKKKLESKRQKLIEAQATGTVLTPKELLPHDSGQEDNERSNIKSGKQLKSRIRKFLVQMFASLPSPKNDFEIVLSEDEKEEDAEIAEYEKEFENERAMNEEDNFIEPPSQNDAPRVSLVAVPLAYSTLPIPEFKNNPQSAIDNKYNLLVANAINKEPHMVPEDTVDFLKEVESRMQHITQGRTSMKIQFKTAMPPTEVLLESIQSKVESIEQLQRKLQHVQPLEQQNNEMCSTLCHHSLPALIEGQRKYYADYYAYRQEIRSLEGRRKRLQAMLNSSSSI
UniProt P38282: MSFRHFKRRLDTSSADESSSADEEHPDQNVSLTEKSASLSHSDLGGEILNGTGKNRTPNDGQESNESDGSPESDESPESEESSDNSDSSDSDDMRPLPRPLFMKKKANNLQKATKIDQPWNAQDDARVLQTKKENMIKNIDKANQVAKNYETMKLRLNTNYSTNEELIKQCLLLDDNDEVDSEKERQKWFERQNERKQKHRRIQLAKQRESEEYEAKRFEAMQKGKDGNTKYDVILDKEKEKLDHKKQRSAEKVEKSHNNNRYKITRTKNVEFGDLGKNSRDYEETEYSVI

Assays:
[1] = biological target: TAP-tagged Brr2-Δ120 (S. cerevisiae) (UniProt P32639); assay: affinity purification with mass spectrometry; TAP-tagged Brr2 pulled down from yeast extract on IgG resin in YEB (40 mM HEPES pH7.9, 200 mM NaCl, 1.5 mM MgCl2, 0.01% NP40), 4°C, eluted by TEV cleavage, LC-MS/MS; two independent pull down experiments
[2] = biological target: TAP-tagged Brr2 WT (S. cerevisiae) (UniProt P32639); assay: as above

Molecule: LEA1 (from UniProt Q08963 1-238)
binding [1]: binds
binding [2]: binds

Molecule: CLF1 (from UniProt Q12309 1-687)
binding [1]: binds
binding [2]: binds

Molecule: RSE1 (from UniProt Q04693 1-1361)
binding [1]: binds
binding [2]: binds

Molecule: PRP38 (from UniProt Q00723 1-242)
binding [1]: binds
binding [2]: binds

Molecule: HSH155 (from UniProt P49955 1-971)
binding [1]: binds
binding [2]: binds

Molecule: PRP19 (from UniProt P32523 1-503)
binding [1]: binds
binding [2]: binds

Molecule: PRP21 (from UniProt P32524 1-280)
binding [1]: binds
binding [2]: binds

Molecule: CEF1 (from UniProt Q03654 1-590)
binding [1]: binds
binding [2]: binds

B2: LSM2 (protein, UniProt P38203 1-95)
chain: MLFFSFFKTLVDQEVVVELKNDIEIKGTLQSVDQFLNLKLDNISCTDEKKYPHLGSVRNIFIRGSTVRYVYLNKNMVDTNLLQDATRREVMTERK
binding [1]: binds
binding [2]: binds

B3: SMB (protein, UniProt P40018 1-196)
chain: MSKIQVAHSSRLANLIDYKLRVLTQDGRVYIGQLMAFDKHMNLVLNECIEERVPKTQLDKLRPRKDSKDGTTLNIKVEKRVLGLTILRGEQILSTVVEDKPLLSKKERLVRDKKEKKQAQKQTKLRKEKEKKPGKIAKPNTANAKHTSSNSREIAQPSSSRYNGGNDNIGANRSRFNNEAPPQTRKFQPPPGFKRK
binding [1]: binds
binding [2]: binds

B4: LSM5 (protein, UniProt P40089 1-93)
chain: MSLPEILPLEVIDKTINQKVLIVLQSNREFEGTLVGFDDFVNVILEDAVEWLIDPEDESRNEKVMQHHGRMLLSGNNIAILVPGGKKTPTEAL
binding [1]: binds
binding [2]: binds

B6: PRP31 (protein, UniProt P49704 1-494)
chain: MSSEEDYFDELEYDLADEVNEEKEDIQTKKLTTVNCQTEKFNPFEILPESIELFRTLALISPDRLSLSETAQILPKIVDLKRILQQQEIDFIKLLPFFNEIIPLIKSNIKLMHNFLISLYSRRFPELSSLIPSPLQYSKVISILENENYSKNESDELFFHLENKAKLTREQILVLTMSMKTSFKNKEPLDIKTRTQILEANSILENLWKLQEDIGQYIASKISIIAPNVCFLVGPEIAAQLIAHAGGVLEFSRIPSCNIASIGKNKHLSHELHTLESGVRQEGYLFASDMIQKFPVSVHKQMLRMLCAKVSLAARVDAGQKNGDRNTVLAHKWKAELSKKARKLSEAPSISETKALPIPEDQPKKKRAGRKFRKYKEKFRLSHVRQLQNRMEFGKQEQTVLDSYGEEVGLGMSNTSLQQAVGATSGSRRSAGNQAKLTKVMKHRISEANQQADEFLISLGHNTEQPNLSPEMVQMHKKQHTNPEEETNWFSGHG
binding [1]: binds
binding [2]: binds

B8: LSM8 (protein, UniProt P47093 1-109)
chain: MSATLKDYLNKRVVIIKVDGECLIASLNGFDKNTNLFITNVFNRISKEFICKAQLLRGSEIALVGLIDAENDDSLAPIDEKKVPMLKDTKNKIENEHVIWEKVYESKTK
binding [1]: binds
binding [2]: binds

B9: PRP9 (protein, UniProt P19736 1-530)
chain: MNLLETRRSLLEEMEIIENAIAERIQRNPELYYHYIQESSKVFPDTKLPRSSLIAENKIYKFKKVKRKRKQIILQQHEINIFLRDYQEKQQTFNKINRPEETQEDDKDLPNFERKLQQLEKELKNEDENFELDINSKKDKYALFSSSSDPSRRTNILSDRARDLDLNEIFTRDEQYGEYMELEQFHSLWLNVIKRGDCSLLQFLDILELFLDDEKYLLTPPMDRKNDRYMAFLLKLSKYVETFFFKSYALLDAAAVENLIKSDFEHSYCRGSLRSEAKGIYCPFCSRWFKTSSVFESHLVGKIHKKNESKRRNFVYSEYKLHRYLKYLNDEFSRTRSFVERKLAFTANERMAEMDILTQKYEAPAYDSTEKEGAEQVDGEQRDGQLQEEHLSGKSFDMPLGPDGLPMPYWLYKLHGLDREYRCEICSNKVYNGRRTFERHFNEERHIYHLRCLGIEPSSVFKGITKIKEAQELWKNMQGQSQLTSIAAVPPKPNPSQLKVPTELELEEEDEEGNVMSKKVYDELKKQGLV
binding [1]: binds
binding [2]: binds

B10: LSM7 (protein, UniProt P53905 1-115)
chain: MHQQHSKSENKPQQQRKKFEGPKREAILDLAKYKDSKIRVKLMGGKLVIGVLKGYDQLMNLVLDDTVEYMSNPDDENNTELISKNARKLGLTVIRGTILVSLSSAEGSDVLYMQK
binding [1]: binds
binding [2]: binds

B11: DIB1 (protein, UniProt Q06819 1-143)
chain: MASVLLPQLRTGWHVDQAIVTETKRLVVIRFGRKNDRQCMIMDELLSSIAERVRNFAVIYLCDIDEVSDFDEMYELTDPMTVMFFYHNKHMMCDFGTGNNNKLNFIVDDKQEMIDILETIFRGARKNKGLVVSPYDYNHKRVS
binding [1]: binds
binding [2]: binds

B12: LSM4 (protein, UniProt P40070 1-187)
chain: MLPLYLLTNAKGQQMQIELKNGEIIQGILTNVDNWMNLTLSNVTEYSEESAINSEDNAESSKAVKLNEIYIRGTFIKFIKLQDNIIDKVKQQINSNNNSNSNGPGHKRYYNNRDSNNNRGNYNRRNNNNGNSNRRPYSQNRQYNNSNSSNINNSINSINSNNQNMNNGLGGSVQHHFNSSSPQKVEF
binding [1]: binds
binding [2]: binds

B13: PRP3 (protein, UniProt Q03338 1-469)
chain: MPPRNTYEKGNPKRQNSPYYKPSFLRREETTNDEEKFQGHGLKTELHSALKSSNLNLIRRTYQTGENPYLSDPHDRGSSSRFNRRYERGLKFYQKGEISKRIAQERTLQKQQEEEELKRKLKQEEDEKDKRKLIESGDLPNLELHEDKFLLDLSKFKIYYDNNHGYEWWDTAYLDEKGELMEKYDMNGTSPAEEKLAEDIDEVDDDDDDEHPSIRYVAHPLPEKINEAKVSIKAYLTQHERKRLRRNRRKMAREAREIKIKLGLLPKPEPKVKLSNMMSVFENDQNITDPTAWEKVVKDQVDLRKRKHLEENERRHEDAIKRRKEAVNMNVEKPTVYHCKVFQFKNLQNPKIRFKLKMNSKELSLKGLCLRIRDDGPGIIIVVGNEKSCKFYENLVMKRIKWNEDFELHTNTGDIKMDMHNNSISKTWEGYLQDCKFKGWFMKVCNDQDSLLRTLGQFDSEHFYSPVQT
binding [1]: binds
binding [2]: binds

B15: LSM3 (protein, UniProt P57743 1-89)
chain: METPLDLLKLNLDERVYIKLRGARTLVGTLQAFDSHCNIVLSDAVETIYQLNNEELSESERRCEMVFIRGDTVTLISTPSEDDDGAVEI
binding [1]: binds
binding [2]: binds

B17: LSM6 (protein, UniProt Q06406 1-86)
chain: MSGKASTEGSVTTEFLSDIIGKTVNVKLASGLLYSGRLESIDGFMNVALSSATEHYESNNNKLLNKFNSDVFLRGTQVMYISEQKI
binding [1]: binds
binding [2]: binds

Continued, values first:

binding [1]: binds
binding [2]: binds
Molecule: SYF1 (from UniProt Q04048 1-859)

binding [1]: binds
binding [2]: binds
Molecule: SMF (from UniProt P54999 1-86)

binding [1]: binds
binding [2]: binds
Molecule: SPP381 (from UniProt P38282 1-291)

binding [1]: binds
binding [2]: binds
Molecule: Snu114 (from UniProt P36048 1-1008)

binding [1]: binds
binding [2]: binds
B1: SMD3 (protein, UniProt P43321 1-101)
chain: MTMNGIPVKLLNEAQGHIVSLELTTGATYRGKLVESEDSMNVQLRDVIATEPQGAVTHMDQIFVRGSQIKFIVVPDLLKNAPLFKKNSSRPMPPIRGPKRR

binding [1]: binds
binding [2]: binds
B5: SNU66 (protein, UniProt Q12420 1-587)
chain: MNKTENLSIEETNEIREKLGMKPIPVFQEKNTDHKESLSIEETNELRASLGLKLIPPQQNFNSSPPNVHNTSKIDELREKITKFQKKANAPLRMAHLLEETNVNDDSSWLENMDAIPSSHESKRSSTLPRKGATKEDENIDLHNVQVSYNIEALSPKKDTILTLKESSIFDDTDSTEVLENVKAAEENADREKLRLRQMNKDRRQKKKILNVSSLDIEEEEEGEKHSITTTHLIIGAEQGVMKAPNTISAKPPTGKVKVNFDSANNMSDEDGGDFKPLKIKKRKIKDPRSTKARKSKITDKMEIVKLVDEDESLSWMEEEQPVTIINPRTSSNNELKGPEDLAREIEKARDEEKRRTESILKMREISNSIVVDEKVTFLNTLDTSLSERSATENKVKVHGEGEKNIGDVTNGHTKEGSGNNTLTEAVNNEPNYEGDAENAPNFFSGLASTLGYLRKKSVFTTGDVDLKPGKDVNNSESLRRDVRNKEHTGTGTYTKDKLHGLEQFTSSDSSNANTHSKRQDHYDPDIKLVYRDEKGNRLTTKEAYKKLSQKFHGTKSNKKKRAKMKSRIEARKNTPENGSLFEFDDN

binding [1]: binds
binding [2]: binds
B7: SMD2 (protein, UniProt Q06217 1-110)
chain: MSSQIIDRPKHELSRAELEELEEFEFKHGPMSLINDAMVTRTPVIISLRNNHKIIARVKAFDRHCNMVLENVKELWTEKKGKNVINRERFISKLFLRGDSVIVVLKTPVE

binding [1]: binds
binding [2]: binds
B14: SMD1 (protein, UniProt Q02260 1-146)
chain: MKLVNFLKKLRNEQVTIELKNGTTVWGTLQSVSPQMNAILTDVKLTLPQPRLNKLNSNGIAMASLYLTGGQQPTASDNIASLQYINIRGNTIRQIILPDSLNLDSLLVDQKQLNSLRRSGQIANDPSKKRRRDFGAPANKRPRRGL

binding [1]: binds
binding [2]: binds
B16: SMG (protein, UniProt P40204 1-77)
chain: MVSTPELKKYMDKKILLNINGSRKVAGILRGYDIFLNVVLDDAMEINGEDPANNHQLGLQTVIRGNSIISLEALDAI

binding [1]: binds
binding [2]: binds
B18: SME (protein, UniProt Q12330 1-94)
chain: MSNKVKTKAMVPPINCIFNFLQQQTPVTIWLFEQIGIRIKGKIVGFDEFMNVVIDEAVEIPVNSADGKEDVEKGTPLGKILLKGDNITLITSAD
